Results as given in article PMC9765618.
Results are given in words; binding and its absence hold for the method and conditions named. Binding seen in cells or lysates may run through a third protein. A yes stands for co-enrichment or nearness to the bait. Other partners may have been found.

Protein sequences, listed by entry. Tags and fused reporters are not part of them. Lines headed by an entry give the natural chain unless they say otherwise; changes in a name come on top. Chains listed by the source or under a name are the forms on record and can include a tag or linker.
bacterially purified GST-tagged Sp100A (P23497, form named): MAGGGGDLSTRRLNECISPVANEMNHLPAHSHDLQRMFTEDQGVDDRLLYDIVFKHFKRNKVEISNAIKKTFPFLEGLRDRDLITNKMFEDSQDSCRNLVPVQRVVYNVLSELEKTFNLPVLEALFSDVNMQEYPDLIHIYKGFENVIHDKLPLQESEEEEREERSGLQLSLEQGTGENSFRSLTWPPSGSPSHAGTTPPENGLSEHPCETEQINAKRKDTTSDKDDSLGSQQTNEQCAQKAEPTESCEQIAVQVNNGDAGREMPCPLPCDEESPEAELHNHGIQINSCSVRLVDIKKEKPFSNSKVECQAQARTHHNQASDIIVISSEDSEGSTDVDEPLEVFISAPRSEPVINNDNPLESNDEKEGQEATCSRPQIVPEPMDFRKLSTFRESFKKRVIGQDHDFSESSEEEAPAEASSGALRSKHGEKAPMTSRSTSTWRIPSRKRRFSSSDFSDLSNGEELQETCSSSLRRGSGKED
UniProt P14618: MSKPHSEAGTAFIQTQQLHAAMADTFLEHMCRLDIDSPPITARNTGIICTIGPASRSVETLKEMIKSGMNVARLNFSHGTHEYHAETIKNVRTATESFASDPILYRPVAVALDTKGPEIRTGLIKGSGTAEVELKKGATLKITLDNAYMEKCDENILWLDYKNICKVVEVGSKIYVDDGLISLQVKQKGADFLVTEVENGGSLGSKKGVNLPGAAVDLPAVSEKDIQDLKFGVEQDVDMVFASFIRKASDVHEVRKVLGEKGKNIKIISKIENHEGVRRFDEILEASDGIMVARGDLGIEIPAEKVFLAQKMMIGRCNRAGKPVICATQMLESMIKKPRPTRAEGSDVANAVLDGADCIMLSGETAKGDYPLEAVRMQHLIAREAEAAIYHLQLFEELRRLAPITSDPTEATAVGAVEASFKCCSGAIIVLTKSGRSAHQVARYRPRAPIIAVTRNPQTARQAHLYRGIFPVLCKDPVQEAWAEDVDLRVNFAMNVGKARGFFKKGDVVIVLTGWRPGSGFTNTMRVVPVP

Columns and labels:
[1] = molecular target: bacterially purified GST-tagged Sp100A (human) (UniProt P23497); test: affinity purification with mass spectrometry; only the target purified
[2] = molecular target: Flag-Sp100A NLS mutant (human) (UniProt P23497); test: affinity purification with mass spectrometry; cytosolic fraction of IFN-β-treated HEp-2 cells transfected with the Flag-Sp100A NLS mutant; anti-Flag magnetic beads overnight at 4°C, washed with PBST; gel bands cut and sent for LC-MS/MS

binding [1]: binds | binding [2]: binds
Substance: pyruvate kinase 2 (PKM), endogenous (from UniProt P14618 1-531) (enzyme)
